The name of at least one read-out is uncertain.
Test system: PGE2 release from primary microglia
Assay: LPS-stimulated PGE2 release by primary microglia (ELISA)
Assay type: cell-based, Sprague Dawley rat
Settings: resveratrol 2.25 μM, curcumin C3 7 nM, alone or combined; FIG. 3
Text: Microglial Harvesting and Culture. All experiments involving animals were approved by the Animal Care and Use Committee established at Bolder Biopath, Inc. (Boulder, Colo.). Primary microglial cultures were derived from neocortical tissue of E22 Sprague Dawley rat pups taken from timed-pregnant dams (Charles River) by Caesarean section. Briefly, the pup brain cortices were isolated in Hibernate EB (Brain Bits; Springfield, Ill.). The samples were then transferred to Hibernate E (without Ca; Brain Bits; Springfield, Ill.) and washed twice with fresh Hibernate E (−Ca). The tissue was next digested in Hibernate E (−Ca) containing 0.5% trypsin (Sigma) for 15 min at 37° C.). […]
The tissue was triturated into single cells, and the suspension was filtered through a 70-μm cell strainer. Cell numbers and viability were consistently greater than 95% as determined using trypan blue (0.4%; Fisher Scientific) and a Countess automated cell counter (Life Technologies, Grand Island, N.Y.). […]
Cell Stimulation and Cytokine Assays. […] The concentration of prostaglandin E2 (PGE2) in the supernatant was measured by ELISA (Cayman Chemical). The concentrations of tumor necrosis factor-α (TNF-α), interleukin-1β (IL-1β) and interleukin-6 (IL-6) in the supernatant were determined by multiplex ELISA (Quansys Biosciences; Logan, Utah). […]

Oc1ccc(C=Cc2cc(O)cc(O)c2)cc1 [Resveratrol, resveratrol]
effect on PGE2 release at respective IC50 values: inhibited PGE2 release
